# Measured data: PubChem BioAssay AID1117269 (University of Michigan, 2014)
# Assay: 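Which kinase knockdowns increase BTR reporter light after TGF-beta stimulation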 (primary screen)
# Cell system: human A549 lung cancer and 1833 breast cancer (MDA-MB-231-derived) cell lines carrying a stable BTR luciferase reporter
# Knock-down reagent: siRNA pool against human genes
# Timing: 72 h after transfection, then 1 h TGF-beta before the read
# Treatment: TGF-beta 10 ng/mL added one hour before luciferin and read-out
# Measured: 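Live-cell BTR luciferase signal at 72 h after transfection and 1 h of TGF-beta at 10 ng/mL, fold versus scrambled siRNA, triplicate mean for each line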
# Scale: fold over scrambled siRNA, A549 and fold over scrambled siRNA, 1833: higher = more reporter light, weaker TGF-beta receptor signalling
# Hit rule: 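Hit in either line counts as active; per-line hits lie above an upper limit from quartiles of averaged log fold values, in plate and screen-wide analyses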
# Calls: active = hit in at least one line; inactive = hit in neither line
# Here is an unselected part of 714 reagents tested. 49 of them (6.9%) were called active. 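Active means a hit in at least one line; per-line hit columns show which; some siRNA pools appear more than once.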 The record does not give: the amount of reagent.
gene knocked down,"fold over scrambled siRNA, A549","fold over scrambled siRNA, 1833",hit in A549,hit in 1833,call
PDGFRA,3.76,0.963,not a hit in A549,not a hit in 1833,inactive
MAPK14,1.93,2.49,not a hit in A549,not a hit in 1833,inactive
KALRN,1.42,1.24,not a hit in A549,not a hit in 1833,inactive
CDKN1A,0.788,2.83,not a hit in A549,not a hit in 1833,inactive
ERBB3,3.38,13.3,not a hit in A549,hit in 1833,
MASTL,1.76,3.79,not a hit in A549,not a hit in 1833,inactive
KCNH2,0.667,0.556,not a hit in A549,not a hit in 1833,inactive
COASY,2.29,3.72,not a hit in A549,not a hit in 1833,inactive
SGK2,3.53,3.07,not a hit in A549,not a hit in 1833,inactive
BMPR1B,3.48,6.01,not a hit in A549,not a hit in 1833,inactive
PHKA2,3.71,6.2,not a hit in A549,not a hit in 1833,inactive
PRPS2,1.05,2.96,not a hit in A549,not a hit in 1833,inactive

Next part (3 carried over from the part before).
gene knocked down,"fold over scrambled siRNA, A549","fold over scrambled siRNA, 1833",hit in A549,hit in 1833,call
BMPR1B,3.48,6.01,not a hit in A549,not a hit in 1833,inactive
PHKA2,3.71,6.2,not a hit in A549,not a hit in 1833,inactive
PRPS2,1.05,2.96,not a hit in A549,not a hit in 1833,inactive
IPPK,2.65,7.47,not a hit in A549,not a hit in 1833,inactive
RSKR,1.25,3.5,not a hit in A549,not a hit in 1833,inactive
PIP5K1A,1.79,2.69,not a hit in A549,not a hit in 1833,inactive
GRK2,0.565,0.786,not a hit in A549,not a hit in 1833,inactive
ADCK5,2.88,2.79,not a hit in A549,not a hit in 1833,inactive
ABL1,1.61,2.24,not a hit in A549,not a hit in 1833,inactive
CDK8,2.69,4.38,not a hit in A549,not a hit in 1833,inactive
PAK5,2.68,1.67,not a hit in A549,not a hit in 1833,inactive
FLT4,0.885,5.73,not a hit in A549,not a hit in 1833,inactive
MARK4,1.96,2.85,not a hit in A549,not a hit in 1833,inactive
TAF1L,1.77,6.19,not a hit in A549,not a hit in 1833,inactive
